Source: patent US6800296
These are yes or no findings as the source states them, for the method shown. Some entries that bind do so weakly or less than the wild type.

Sequences of proteins named here, by UniProt entry; tags and fusion partners are left off. Residues count along the entry.
UniProt P02701, residues 25-152: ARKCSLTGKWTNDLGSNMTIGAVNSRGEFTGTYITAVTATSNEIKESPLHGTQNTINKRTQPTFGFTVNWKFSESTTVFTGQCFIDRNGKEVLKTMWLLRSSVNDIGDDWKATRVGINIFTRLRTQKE

Target: avidin (UniProt P02701)
Assay: confocal fluorescence microscopy; avidin-immobilized PLA-PEG-biotin films exposed to the peptide, washed, then probed with biotin-FITC

binding: binds
B1: biotin-(G)11-GRGDS (peptide)
peptide: GGGGGGGGGGGGRGDS
modifications: biotin at the N-terminus (printed as biotin-(G)11-GRGDS)
